Assay results taken from the supplement of paper PMC8728848.
This is one part of the list.

How the values were obtained:
Assay in all cases: glycan array binding signal (z-score within array); higher = stronger binding
Conditions in all cases: glycan notation: IUPAC condensed, linker removed; mutation: D21K
[1] = molecular target: Gal(a1-3)Gal(b1-3)GlcNAc(b1-3)GalNAc
Method in brief: (§1)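 Arrays were curated from the Consortium for Functional Glycomics database, 3228 in total, and kept only where the protein sequence was available. Binding is expressed as a within-array Z-score. This score was averaged across arrays of the same protein sequence at different concentrations or buffers and across linkers, and negative values can be read as non-binding.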

[2] = molecular target: Gal(a1-3)Gal(b1-3)GlcNAc(b1-6)GalNAc
Method in brief: as §1

[3] = molecular target: Gal(a1-3)Gal(b1-3)[Fuc(a1-4)]GlcNAc(b1-2)Man(a1-3)[Gal(a1-3)Gal(b1-3)[Fuc(a1-4)]GlcNAc(b1-2)Man(a1-6)]Man(b1-4)GlcNAc(b1-4)GlcNAc
Method in brief: as §1

Gal(a1-3)Gal(b1-4)Glc = molecular target: Gal(a1-3)Gal(b1-4)Glc
Method in brief: as §1

Gal(a1-3)Gal(b1-4)GlcNAc = molecular target: Gal(a1-3)Gal(b1-4)GlcNAc
Method in brief: as §1

[4] = molecular target: Gal(a1-3)Gal(b1-4)GlcNAc(b1-2)Man
Method in brief: as §1

[5] = molecular target: Gal(a1-3)Gal(b1-4)GlcNAc(b1-2)Man(a1-3)[Gal(a1-3)Gal(b1-4)GlcNAc(b1-2)Man(a1-6)]Man(b1-4)GlcNAc(b1-4)GlcNAc
Method in brief: as §1

[6] = molecular target: Gal(a1-3)Gal(b1-4)GlcNAc(b1-3)GalNAc
Method in brief: as §1

[7] = molecular target: Gal(a1-3)Gal(b1-4)GlcNAc(b1-6)GalNAc
Method in brief: as §1

[8] = molecular target: Gal(a1-3)Gal(b1-4)[Fuc(a1-3)]GlcNAc
Method in brief: as §1

[9] = molecular target: Gal(a1-3)Gal(b1-4)[Fuc(a1-3)]GlcNAc(b1-2)Man(a1-3)[Gal(a1-3)Gal(b1-4)[Fuc(a1-3)]GlcNAc(b1-2)Man(a1-6)]Man(b1-4)GlcNAc(b1-4)GlcNAc
Method in brief: as §1

Gal(a1-3)GalNAc = molecular target: Gal(a1-3)GalNAc
Method in brief: as §1

[10] = molecular target: Gal(a1-3)[Gal(a1-4)]Gal(b1-4)GlcNAc
Method in brief: as §1

[11] = molecular target: Gal(a1-4)Gal(b1-3)GlcNAc(b1-2)Man(a1-3)[Gal(a1-4)Gal(b1-3)GlcNAc(b1-2)Man(a1-6)]Man(b1-4)GlcNAc(b1-4)GlcNAc
Method in brief: as §1

Gal(a1-4)Gal(b1-4)Glc = molecular target: Gal(a1-4)Gal(b1-4)Glc
Method in brief: as §1

Gal(a1-4)Gal(b1-4)GlcNAc = molecular target: Gal(a1-4)Gal(b1-4)GlcNAc
Method in brief: as §1

[12] = molecular target: Gal(a1-4)Gal(b1-4)GlcNAc(b1-2)Man(a1-3)[Gal(a1-4)Gal(b1-4)GlcNAc(b1-2)Man(a1-6)]Man(b1-4)GlcNAc(b1-4)GlcNAc
Method in brief: as §1

[13] = molecular target: Gal(a1-4)Gal(b1-4)GlcNAc(b1-3)Gal(b1-4)Glc
Method in brief: as §1

Gal(a1-4)GlcNAc = molecular target: Gal(a1-4)GlcNAc
Method in brief: as §1

Gal(a1-6)Glc = molecular target: Gal(a1-6)Glc
Method in brief: as §1

Gal(b1-2)Gal = molecular target: Gal(b1-2)Gal
Method in brief: as §1

Gal(b1-3)Gal = molecular target: Gal(b1-3)Gal
Method in brief: as §1

Gal(b1-3)Gal(b1-4)GlcNAc = molecular target: Gal(b1-3)Gal(b1-4)GlcNAc
Method in brief: as §1

Gal(b1-3)GalNAc = molecular target: Gal(b1-3)GalNAc
Method in brief: as §1

[14] = molecular target: Gal(b1-3)GalNAc(a1-3)[Fuc(a1-2)]Gal(b1-4)Glc
Method in brief: as §1

[15] = molecular target: Gal(b1-3)GalNAc(a1-3)[Fuc(a1-2)]Gal(b1-4)GlcNAc
Method in brief: as §1

B1: C7A (Sus scrofa) (peptide)
chain: KILRGVCKKIMRTFLRRISKKILTGKK
For B1, the “glycan array binding signal (z-score)” value [1] was -1.08, the “glycan array binding signal (z-score)” value [2] was 0.203 and the “glycan array binding signal (z-score)” value [3] was -0.499. The “glycan array binding signal (z-score)” value (Gal(a1-3)Gal(b1-4)Glc) was 0.445, the “glycan array binding signal (z-score)” value (Gal(a1-3)Gal(b1-4)GlcNAc) was -0.056 and the “glycan array binding signal (z-score)” value [4] was -0.255. The “glycan array binding signal (z-score)” value [5] was 1.02, the “glycan array binding signal (z-score)” value [6] was 1.03 and the “glycan array binding signal (z-score)” value [7] was 0.289. For the same binder, the “glycan array binding signal (z-score)” value [8] was -0.503, the “glycan array binding signal (z-score)” value [9] was 1.54 and the “glycan array binding signal (z-score)” value (Gal(a1-3)GalNAc) was -1.27. The “glycan array binding signal (z-score)” value [10] was 0.818, the “glycan array binding signal (z-score)” value [11] was 0.908 and the “glycan array binding signal (z-score)” value (Gal(a1-4)Gal(b1-4)Glc) was -0.862. The “glycan array binding signal (z-score)” value (Gal(a1-4)Gal(b1-4)GlcNAc) was -0.591, the “glycan array binding signal (z-score)” value [12] was 0.22 and the “glycan array binding signal (z-score)” value [13] was 0.658. For the same binder, the “glycan array binding signal (z-score)” value (Gal(a1-4)GlcNAc) was -1.02, the “glycan array binding signal (z-score)” value (Gal(a1-6)Glc) was -1.76 and the “glycan array binding signal (z-score)” value (Gal(b1-2)Gal) was -1.46. For the same binder, the “glycan array binding signal (z-score)” value (Gal(b1-3)Gal) was 0.526, the “glycan array binding signal (z-score)” value (Gal(b1-3)Gal(b1-4)GlcNAc) was 0.38 and the “glycan array binding signal (z-score)” value (Gal(b1-3)GalNAc) was -0.394. The “glycan array binding signal (z-score)” value [14] was -0.962 and the “glycan array binding signal (z-score)” value [15] was 1.21.
